Laboratory results from paper PMC10601247.
No constants are given. Whether binding was seen depends on the method and setting. For some assays here: In cells and extracts the contact can be indirect. Some binding calls cover weakened binding; strength is not graded here. For some assays here: Where a sequence is shown, tags or fusion partners need not be part of it. One block for each binder: values may come before it.

Assays:
[1] = target: T1, recombinant EFR3A (N-terminal 6X-histidine tag) (human) (UniProt Q14156); test: far-Western, overlay or dot blot; 20 μg purified recombinant EFR3A after SDS-PAGE on nitrocellulose, strips with bands > 70 kDa, blocked with 5% dry milk in TBS-T; incubated with increasing concentrations of recombinant flotillin-2 in TBS-T; detected with goat anti-flotillin-2 antibodies; both purified
T1 sequence: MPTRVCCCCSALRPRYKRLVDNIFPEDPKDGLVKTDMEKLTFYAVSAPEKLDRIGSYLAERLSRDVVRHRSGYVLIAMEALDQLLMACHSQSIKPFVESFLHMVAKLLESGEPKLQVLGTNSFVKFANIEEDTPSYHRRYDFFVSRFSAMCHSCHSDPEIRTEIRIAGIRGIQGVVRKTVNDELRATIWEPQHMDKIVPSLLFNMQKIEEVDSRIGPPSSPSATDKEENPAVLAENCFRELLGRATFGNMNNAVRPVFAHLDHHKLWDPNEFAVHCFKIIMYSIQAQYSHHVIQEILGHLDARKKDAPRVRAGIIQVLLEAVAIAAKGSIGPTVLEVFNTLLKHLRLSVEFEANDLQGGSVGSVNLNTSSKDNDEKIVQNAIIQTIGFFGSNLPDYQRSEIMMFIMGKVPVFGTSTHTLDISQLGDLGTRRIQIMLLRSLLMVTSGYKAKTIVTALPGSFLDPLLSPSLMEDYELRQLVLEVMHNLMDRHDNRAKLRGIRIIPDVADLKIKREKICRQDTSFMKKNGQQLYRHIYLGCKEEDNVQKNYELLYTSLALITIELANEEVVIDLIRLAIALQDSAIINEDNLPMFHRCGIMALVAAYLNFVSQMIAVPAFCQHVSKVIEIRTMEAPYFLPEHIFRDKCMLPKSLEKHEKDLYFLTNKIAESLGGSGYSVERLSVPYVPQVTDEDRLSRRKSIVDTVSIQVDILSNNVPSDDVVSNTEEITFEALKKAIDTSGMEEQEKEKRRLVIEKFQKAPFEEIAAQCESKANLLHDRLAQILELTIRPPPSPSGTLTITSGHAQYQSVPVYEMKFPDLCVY

[2] = target: T2, flotillin-2 (endogenous, HeLa cells) (human (endogenous in HeLa)) (UniProt Q14254); test: co-IP; HeLa cells solubilized in 20 mM Tris, 150 mM NaCl, 1 mM EDTA, 1% Triton X-100, 5% glycerol, 2% octyl β-D-glucopyranoside pH 7.4; 5 μg goat anti-flotillin-2 antibodies on protein G Dynabeads, 4 °C overnight; nonimmune IgG as control; western blot with anti-EFR3A
T2 sequence: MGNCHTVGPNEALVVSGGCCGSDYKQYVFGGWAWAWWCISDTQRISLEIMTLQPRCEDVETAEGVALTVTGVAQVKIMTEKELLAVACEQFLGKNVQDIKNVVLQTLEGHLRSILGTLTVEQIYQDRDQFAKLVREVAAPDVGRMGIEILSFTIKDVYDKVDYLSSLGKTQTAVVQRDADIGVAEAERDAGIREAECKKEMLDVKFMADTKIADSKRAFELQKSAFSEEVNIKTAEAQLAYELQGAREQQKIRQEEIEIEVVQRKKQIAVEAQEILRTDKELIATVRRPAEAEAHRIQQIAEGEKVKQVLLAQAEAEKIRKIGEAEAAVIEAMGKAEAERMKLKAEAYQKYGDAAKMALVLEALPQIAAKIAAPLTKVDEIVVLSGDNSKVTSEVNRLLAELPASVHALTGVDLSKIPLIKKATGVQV

[3] = target: T3, His-tagged recombinant flotillin-2 (UniProt Q14254); test: pull-down; recombinant flotillin-2 Sepharose incubated overnight at 4 °C with HeLa DRM fraction in octyl glucoside buffer; bound fraction probed by western blot with anti-EFR3A antibody; unconjugated resin as control; only the target purified
T3 sequence: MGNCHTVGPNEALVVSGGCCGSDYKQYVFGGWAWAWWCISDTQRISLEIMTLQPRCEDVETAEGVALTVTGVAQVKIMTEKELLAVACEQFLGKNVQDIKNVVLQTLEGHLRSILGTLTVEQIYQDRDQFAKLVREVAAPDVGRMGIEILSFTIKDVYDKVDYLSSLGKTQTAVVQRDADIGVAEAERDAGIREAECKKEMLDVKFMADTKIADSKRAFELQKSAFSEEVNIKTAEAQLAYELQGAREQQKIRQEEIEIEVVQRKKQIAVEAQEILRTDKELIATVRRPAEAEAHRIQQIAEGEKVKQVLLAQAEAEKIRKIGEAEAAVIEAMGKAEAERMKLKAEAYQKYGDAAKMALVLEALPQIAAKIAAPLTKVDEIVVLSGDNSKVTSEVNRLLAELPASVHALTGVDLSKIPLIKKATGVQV

[4] = target: T3, His-tagged recombinant flotillin-2; test: pull-down; unpublished data: EFR3A of DRMs from other human cell lines pulled down on immobilized flotillin-2; only the target purified

binding [4]: binds
B3: EFR3A (endogenous, PC-3 cells) (protein, UniProt Q14156 1-821)
chain: MPTRVCCCCSALRPRYKRLVDNIFPEDPKDGLVKTDMEKLTFYAVSAPEKLDRIGSYLAERLSRDVVRHRSGYVLIAMEALDQLLMACHSQSIKPFVESFLHMVAKLLESGEPKLQVLGTNSFVKFANIEEDTPSYHRRYDFFVSRFSAMCHSCHSDPEIRTEIRIAGIRGIQGVVRKTVNDELRATIWEPQHMDKIVPSLLFNMQKIEEVDSRIGPPSSPSATDKEENPAVLAENCFRELLGRATFGNMNNAVRPVFAHLDHHKLWDPNEFAVHCFKIIMYSIQAQYSHHVIQEILGHLDARKKDAPRVRAGIIQVLLEAVAIAAKGSIGPTVLEVFNTLLKHLRLSVEFEANDLQGGSVGSVNLNTSSKDNDEKIVQNAIIQTIGFFGSNLPDYQRSEIMMFIMGKVPVFGTSTHTLDISQLGDLGTRRIQIMLLRSLLMVTSGYKAKTIVTALPGSFLDPLLSPSLMEDYELRQLVLEVMHNLMDRHDNRAKLRGIRIIPDVADLKIKREKICRQDTSFMKKNGQQLYRHIYLGCKEEDNVQKNYELLYTSLALITIELANEEVVIDLIRLAIALQDSAIINEDNLPMFHRCGIMALVAAYLNFVSQMIAVPAFCQHVSKVIEIRTMEAPYFLPEHIFRDKCMLPKSLEKHEKDLYFLTNKIAESLGGSGYSVERLSVPYVPQVTDEDRLSRRKSIVDTVSIQVDILSNNVPSDDVVSNTEEITFEALKKAIDTSGMEEQEKEKRRLVIEKFQKAPFEEIAAQCESKANLLHDRLAQILELTIRPPPSPSGTLTITSGHAQYQSVPVYEMKFPDLCVY

binding [4]: binds
B4: EFR3A (endogenous, LNCaP cells) (protein, UniProt Q14156 1-821)
chain: MPTRVCCCCSALRPRYKRLVDNIFPEDPKDGLVKTDMEKLTFYAVSAPEKLDRIGSYLAERLSRDVVRHRSGYVLIAMEALDQLLMACHSQSIKPFVESFLHMVAKLLESGEPKLQVLGTNSFVKFANIEEDTPSYHRRYDFFVSRFSAMCHSCHSDPEIRTEIRIAGIRGIQGVVRKTVNDELRATIWEPQHMDKIVPSLLFNMQKIEEVDSRIGPPSSPSATDKEENPAVLAENCFRELLGRATFGNMNNAVRPVFAHLDHHKLWDPNEFAVHCFKIIMYSIQAQYSHHVIQEILGHLDARKKDAPRVRAGIIQVLLEAVAIAAKGSIGPTVLEVFNTLLKHLRLSVEFEANDLQGGSVGSVNLNTSSKDNDEKIVQNAIIQTIGFFGSNLPDYQRSEIMMFIMGKVPVFGTSTHTLDISQLGDLGTRRIQIMLLRSLLMVTSGYKAKTIVTALPGSFLDPLLSPSLMEDYELRQLVLEVMHNLMDRHDNRAKLRGIRIIPDVADLKIKREKICRQDTSFMKKNGQQLYRHIYLGCKEEDNVQKNYELLYTSLALITIELANEEVVIDLIRLAIALQDSAIINEDNLPMFHRCGIMALVAAYLNFVSQMIAVPAFCQHVSKVIEIRTMEAPYFLPEHIFRDKCMLPKSLEKHEKDLYFLTNKIAESLGGSGYSVERLSVPYVPQVTDEDRLSRRKSIVDTVSIQVDILSNNVPSDDVVSNTEEITFEALKKAIDTSGMEEQEKEKRRLVIEKFQKAPFEEIAAQCESKANLLHDRLAQILELTIRPPPSPSGTLTITSGHAQYQSVPVYEMKFPDLCVY

The next lines start with the binder.

B1: His-tagged recombinant flotillin-2 (protein, UniProt Q14254 1-428)
chain: MGNCHTVGPNEALVVSGGCCGSDYKQYVFGGWAWAWWCISDTQRISLEIMTLQPRCEDVETAEGVALTVTGVAQVKIMTEKELLAVACEQFLGKNVQDIKNVVLQTLEGHLRSILGTLTVEQIYQDRDQFAKLVREVAAPDVGRMGIEILSFTIKDVYDKVDYLSSLGKTQTAVVQRDADIGVAEAERDAGIREAECKKEMLDVKFMADTKIADSKRAFELQKSAFSEEVNIKTAEAQLAYELQGAREQQKIRQEEIEIEVVQRKKQIAVEAQEILRTDKELIATVRRPAEAEAHRIQQIAEGEKVKQVLLAQAEAEKIRKIGEAEAAVIEAMGKAEAERMKLKAEAYQKYGDAAKMALVLEALPQIAAKIAAPLTKVDEIVVLSGDNSKVTSEVNRLLAELPASVHALTGVDLSKIPLIKKATGVQV
binding [1]: binds

B2: EFR3A (endogenous, HeLa cells) (protein, UniProt Q14156 1-821)
chain: MPTRVCCCCSALRPRYKRLVDNIFPEDPKDGLVKTDMEKLTFYAVSAPEKLDRIGSYLAERLSRDVVRHRSGYVLIAMEALDQLLMACHSQSIKPFVESFLHMVAKLLESGEPKLQVLGTNSFVKFANIEEDTPSYHRRYDFFVSRFSAMCHSCHSDPEIRTEIRIAGIRGIQGVVRKTVNDELRATIWEPQHMDKIVPSLLFNMQKIEEVDSRIGPPSSPSATDKEENPAVLAENCFRELLGRATFGNMNNAVRPVFAHLDHHKLWDPNEFAVHCFKIIMYSIQAQYSHHVIQEILGHLDARKKDAPRVRAGIIQVLLEAVAIAAKGSIGPTVLEVFNTLLKHLRLSVEFEANDLQGGSVGSVNLNTSSKDNDEKIVQNAIIQTIGFFGSNLPDYQRSEIMMFIMGKVPVFGTSTHTLDISQLGDLGTRRIQIMLLRSLLMVTSGYKAKTIVTALPGSFLDPLLSPSLMEDYELRQLVLEVMHNLMDRHDNRAKLRGIRIIPDVADLKIKREKICRQDTSFMKKNGQQLYRHIYLGCKEEDNVQKNYELLYTSLALITIELANEEVVIDLIRLAIALQDSAIINEDNLPMFHRCGIMALVAAYLNFVSQMIAVPAFCQHVSKVIEIRTMEAPYFLPEHIFRDKCMLPKSLEKHEKDLYFLTNKIAESLGGSGYSVERLSVPYVPQVTDEDRLSRRKSIVDTVSIQVDILSNNVPSDDVVSNTEEITFEALKKAIDTSGMEEQEKEKRRLVIEKFQKAPFEEIAAQCESKANLLHDRLAQILELTIRPPPSPSGTLTITSGHAQYQSVPVYEMKFPDLCVY
binding [2]: binds | binding [3]: binds
